These are yes or no findings as the source states them, for the method shown. Some binding calls cover weakened binding; strength is not graded here.
Experiments:
[1] = target: Programmed Death 1 (PD-1) (UniProt Q15116); experiment: FACS competition on PD-1-expressing 300.19 cells; constant Alexa 488-labeled murine mAb BAP049, serial dilutions of test mAb; x axis is the ratio conc. test mAb / conc. labelled murine mAb; Experiment 2
[2] = target: Programmed Death 1 (PD-1) (UniProt Q15116); experiment: FACS, blocking of PD-L2-Ig binding to PD-1, MFI of bound ligand against mAb concentration; cells not named
[3] = target: Programmed Death 1 (PD-1) (UniProt Q15116); experiment: FACS competition: fluorescently labeled murine anti-PD-1 mAb BAP049 competed by unlabeled mAb, MFI against mAb concentration; second of two experiments; cells not named in legend paragraph 48
[4] = target: Programmed Death 1 (PD-1) (UniProt Q15116); experiment: FACS, blocking of ligand-Ig binding to PD-1, MFI of bound ligand against mAb concentration; legend paragraph 53 names 'PD-LI-Ig and PD-L2-Ig' for FIG. 8A; cells not named
[5] = target: Programmed Death 1 (PD-1) (UniProt Q15116); experiment: FACS competition: fluorescently labeled murine anti-PD-1 mAb BAP049 competed by unlabeled mAb, MFI against mAb concentration; first of two experiments; cells not named in legend paragraph 48
[6] = target: Programmed Death 1 (PD-1) (UniProt Q15116); experiment: FACS binding at 200, 100, 50, 25 and 12.5 ng/ml; legend paragraph 49 names neither cells nor antigen; PD-1 taken as target because the clones are the filing's anti-PD-1 antibodies

Amino acid sequences for entries named in this document (tags omitted). Residues count along the entry.
UniProt Q15116, residues 25-288: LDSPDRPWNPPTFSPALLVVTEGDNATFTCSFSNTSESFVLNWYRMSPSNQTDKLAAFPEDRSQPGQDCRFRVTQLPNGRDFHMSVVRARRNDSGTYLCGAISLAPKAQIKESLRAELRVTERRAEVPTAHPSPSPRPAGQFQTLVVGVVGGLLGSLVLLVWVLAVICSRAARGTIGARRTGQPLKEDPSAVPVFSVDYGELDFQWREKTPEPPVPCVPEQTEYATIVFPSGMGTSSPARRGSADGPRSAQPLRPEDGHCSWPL

Measured: binding

B1: Mu mAb (antibody, V domains shown)
VH: QVQLQQSGSELVRPGASVKLSCKASGYTFTTYWMHWVRQRPGQGLEWIGNIYPGTGGSNFDEKFKNRTSLTVDTSSTTAYMHLASLTSEDSAVYYCTRWTTGTGAYWGQGTLVTVSA
VL: DIVMTQSPSSLTVTAGEKVTMSCKSSQSLLDSGNQKNFLTWYQQKPGQPPKLLIFWASTRESGVPDRFTGSGSVTDFTLTISSVQAEDLAVYYCQNDYSYPCTFGGGTKLEIK
not listed: [6]
binds: all other assays above

B2: BAP049-hum02 (antibody, human IgG4 S228P, kappa, V domains shown)
VH: EVQLVQSGAEVKKPGESLRISCKGSGYTFTTYWMHWVRQATGQGLEWMGNIYPGTGGSNFDEKFKNRVTITADKSTSTAYMELSSLRSEDTAVYYCTRWTTGTGAYWGQGTTVTVSS
VL: DIQMTQSPSSLSASVGDRVTITCKSSQSLLDSGNQKNFLTWYQQKPGQAPRLLIYWASTRESGIPPRFSGSGYGTDFTLTINNIESEDAAYYFCQNDYSYPYTFGQGTKVEIKR
binds: [1] | [6]

B3: Chi mAb (Tyr) (antibody, human IgG4 S228P, kappa, V domains shown)
VH: QVQLQQSGSELVRPGASVKLSCKASGYTFTTYWMHWVRQRPGQGLEWIGNIYPGTGGSNFDEKFKNRTSLTVDTSSTTAYMHLASLTSEDSAVYYCTRWTTGTGAYWGQGTTVTVSS
VL: DIVMTQSPSSLTVTAGEKVTMSCKSSQSLLDSGNQKNFLTWYQQKPGQPPKLLIFWASTRESGVPDRFTGSGSVTDFTLTISSVQAEDLAVYYCQNDYSYPYTFGQGTKVEIKR
not listed: [6]
binds: all other assays above

B4: BAP049-hum01 (antibody, human IgG4 S228P, kappa, V domains shown)
VH: EVQLVQSGAEVKKPGESLRISCKGSGYTFTTYWMHWVRQATGQGLEWMGNIYPGTGGSNFDEKFKNRVTITADKSTSTAYMELSSLRSEDTAVYYCTRWTTGTGAYWGQGTTVTVSS
VL: EIVLTQSPATLSLSPGERATLSCKSSQSLLDSGNQKNFLTWYQQKPGQAPRLLIYWASTRESGVPSRFSGSGSGTEFTLTISSLQPDDFATYYCQNDYSYPYTFGQGTKVEIKR
binds: [1] | [2] | [4] | [6]

B5: BAP049-hum05 (antibody, human IgG4 S228P, kappa, V domains shown)
VH: EVQLVQSGAEVKKPGESLRISCKGSGYTFTTYWMHWVRQATGQGLEWMGNIYPGTGGSNFDEKFKNRVTITADKSTSTAYMELSSLRSEDTAVYYCTRWTTGTGAYWGQGTTVTVSS
VL: EIVLTQSPATLSLSPGERATLSCKSSQSLLDSGNQKNFLTWYQQKPGKAPKLLIYWASTRESGVPSRFSGSGSGTDFTFTISSLQPEDIATYYCQNDYSYPYTFGQGTKVEIKR
binds: [1] | [2] | [4] | [6]

B6: BAP049-hum03 (antibody, human IgG4 S228P, kappa, V domains shown)
VH: EVQLVQSGAEVKKPGESLRISCKGSGYTFTTYWMHWIRQSPSRGLEWLGNIYPGTGGSNFDEKFKNRFTISRDNSKNTLYLQMNSLRAEDTAVYYCTRWTTGTGAYWGQGTTVTVSS
VL: DIQMTQSPSSLSASVGDRVTITCKSSQSLLDSGNQKNFLTWYQQKPGQAPRLLIYWASTRESGIPPRFSGSGYGTDFTLTINNIESEDAAYYFCQNDYSYPYTFGQGTKVEIKR
binds: [1] | [6]

B7: BAP049-hum04 (antibody, human IgG4 S228P, kappa, V domains shown)
VH: EVQLVQSGAEVKKPGESLRISCKGSGYTFTTYWMHWIRQSPSRGLEWLGNIYPGTGGSNFDEKFKNRFTISRDNSKNTLYLQMNSLRAEDTAVYYCTRWTTGTGAYWGQGTTVTVSS
VL: EIVLTQSPATLSLSPGERATLSCKSSQSLLDSGNQKNFLTWYQQKPGKAPKLLIYWASTRESGVPSRFSGSGSGTDFTFTISSLQPEDIATYYCQNDYSYPYTFGQGTKVEIKR
binds: [1] | [6]

B8: Chi mAb (Cys) (antibody, human IgG4 S228P, kappa, V domains shown)
VH: QVQLQQSGSELVRPGASVKLSCKASGYTFTTYWMHWVRQRPGQGLEWIGNIYPGTGGSNFDEKFKNRTSLTVDTSSTTAYMHLASLTSEDSAVYYCTRWTTGTGAYWGQGTTVTVSS
VL: DIVMTQSPSSLTVTAGEKVTMSCKSSQSLLDSGNQKNFLTWYQQKPGQPPKLLIFWASTRESGVPDRFTGSGSVTDFTLTISSVQAEDLAVYYCQNDYSYPCTFGQGTKVEIKR
binds: [3] | [5]

B9: BAP049-hum12 (antibody, human IgG4 S228P, kappa, V domains shown)
VH: EVQLVQSGAEVKKPGESLRISCKGSGYTFTTYWMHWVRQATGQGLEWMGNIYPGTGGSNFDEKFKNRVTITADKSTSTAYMELSSLRSEDTAVYYCTRWTTGTGAYWGQGTTVTVSS
VL: DIQMTQSPSSLSASVGDRVTITCKSSQSLLDSGNQKNFLTWYLQKPGQSPQLLIYWASTRESGVPSRFSGSGSGTDFTFTISSLEAEDAATYYCQNDYSYPYTFGQGTKVEIKR
binds: [1] | [6]

B10: BAP049-hum16 (antibody, human IgG4 S228P, kappa, V domains shown)
VH: EVQLVQSGAEVKKPGESLRISCKGSGYTFTTYWMHWVRQAPGQGLEWMGNIYPGTGGSNFDEKFKNRFTISRDNSKNTLYLQMNSLRAEDTAVYYCTRWTTGTGAYWGQGTTVTVSS
VL: EIVLTQSPDFQSVTPKEKVTITCKSSQSLLDSGNQKNFLTWYQQKPGQAPRLLIYWASTRESGVPSRFSGSGSGTDFTFTISSLEAEDAATYYCQNDYSYPYTFGQGTKVEIKR
binds: [1] | [6]

From patent US20210363254A1, “PHARMACEUTICAL COMBINATIONS” (Novartis AG, priority 2018, published 2021)
